From publication PMC11282742
No constants are given. Whether binding was seen depends on the method and setting. Binding seen in cells or lysates may run through a third protein. Some entries that bind do so weakly or less than the wild type.

Sequences of proteins named here, by UniProt entry; tags and fusion partners are left off. Residues count along the entry.
UniProt P37173, residues 23-567: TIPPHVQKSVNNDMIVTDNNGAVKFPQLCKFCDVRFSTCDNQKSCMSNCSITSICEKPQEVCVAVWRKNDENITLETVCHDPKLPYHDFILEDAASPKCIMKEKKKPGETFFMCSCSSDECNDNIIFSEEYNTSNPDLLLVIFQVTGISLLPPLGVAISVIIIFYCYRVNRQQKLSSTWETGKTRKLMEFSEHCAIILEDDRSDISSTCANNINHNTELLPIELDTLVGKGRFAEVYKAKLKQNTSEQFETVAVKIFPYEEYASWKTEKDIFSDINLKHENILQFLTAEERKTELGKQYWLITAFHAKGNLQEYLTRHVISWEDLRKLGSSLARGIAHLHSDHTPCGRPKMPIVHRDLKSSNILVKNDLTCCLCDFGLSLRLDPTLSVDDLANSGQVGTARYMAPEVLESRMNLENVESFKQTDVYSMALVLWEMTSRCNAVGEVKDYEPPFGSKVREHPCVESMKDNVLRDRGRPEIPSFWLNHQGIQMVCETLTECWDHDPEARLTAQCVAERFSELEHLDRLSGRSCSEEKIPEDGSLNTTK

Target: Transforming growth factor beta receptor 2 (TβRII) (human (endogenous in SW480 and HCT116)) (UniProt P37173)
Assay: co-IP; endogenous proteins in SW480 cell lysate; IP with anti-SLC14A1 or anti-TβRII antibody, protein A/G-agarose, washed with PBS, immunoblot

binding: binds
B1: Solute Carrier Family 14 Member 1 (SLC14A1) (protein, UniProt Q13336 1-389)
chain: MEDSPTMVRVDSPTMVRGENQVSPCQGRRCFPKALGYVTGDMKELANQLKDKPVVLQFIDWILRGISQVVFVNNPVSGILILVGLLVQNPWWALTGWLGTVVSTLMALLLSQDRSLIASGLYGYNATLVGVLMAVFSDKGDYFWWLLLPVCAMSMTCPIFSSALNSMLSKWDLPVFTLPFNMALSMYLSATGHYNPFFPAKLVIPITTAPNISWSDLSALELLKSIPVGVGQIYGCDNPWTGGIFLGAILLSSPLMCLHAAIGSLLGIAAGLSLSAPFEDIYFGLWGFNSSLACIAMGGMFMALTWQTHLLALGCALFTAYLGVGMANFMAEVGLPACTWPFCLATLLFLIMTTKNSNIYKMPLSKVTYPEENRIFYLQAKKRMVESPL
